For at least one entry, the source does not settle the construct or the ends of the probe. At least one verdict was read from the data and is not stated in words by the source.
What was measured:
[1] = target: MBD2 MBD wild type (Homo sapiens) (UniProt Q9UBB5); test: NMR (15N-HSQC); conditions: comparison spectrum for S189A; 5-methylcytosine at position 9 of strand 1 and at position 8 of strand 2 (symmetric mCpG); recombinant protein; residues 150-214
[2] = target: MBD2 MBD S189A (Homo sapiens) (UniProt Q9UBB5); test: NMR (15N-HSQC); conditions: methylation-specific binding mode retained; 5-methylcytosine at position 9 of strand 1 and at position 8 of strand 2 (symmetric mCpG); recombinant protein; residues 150-214

Protein sequences, listed by entry. Tags and fused reporters are not part of them. Residues count along the entry.
UniProt Q9UBB5, 150-214: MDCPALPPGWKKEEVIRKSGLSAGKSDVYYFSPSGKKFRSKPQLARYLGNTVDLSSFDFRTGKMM
UniProt Q9UBB5, 150-214 S189A: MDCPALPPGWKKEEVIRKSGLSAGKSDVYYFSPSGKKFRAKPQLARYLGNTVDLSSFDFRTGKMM

“GAGGCGCTCGGCGGCAG (double strand) [17-bp symmetrically methylated mCpG DNA, unlabeled]”: binds [1]; binds [2].

Reference: paper PMC13678254
